The nature of the series: Binding of novel bisphosphonate conjugates on hydroxyapatite powder (UV spectra before/after treatment). The settings on record: for peaks absorbency Before Hydroxyapatite addition: pH 7.0, 0.1 M Tris-HCl, 0.15 M NaCl, at peak wavelength; for peaks absorbency After Hydroxyapatite addition: supernatant after 10 minutes shaking with hydroxyapatite, pH 7.0. The method, then:
To estimate the binding of NBC on hydroxyapatite (the mineral component of bone) UV spectra of NBC at pH7 were recorded before and after treatment with hydroxyapatite. […] The supernatant was separated and an absorption spectrum of the supernatant was recorded.

On to `Cc1ncc(COP(=O)(O)O)c(CNC(P(=O)(O)O)P(=O)(O)O)c1O` [(iii), 1 - (N-[5 '-phospho] -pyridoxylamino)-methylene-1,1-bisphosphonic acid], for which the “peaks absorbency Before Hydroxyapatite addition” value is reported as 0,462 and the “peaks absorbency After Hydroxyapatite addition” value is 0.
On to `Cc1ncc(CO)c(CNC(P(=O)(O)O)P(=O)(O)O)c1O` [(iv), 1 -(N-pyridoxyl amino) -methylen-1, 1 -bisphosphonic acid], for which the “peaks absorbency Before Hydroxyapatite addition” value is 0,463 and the “peaks absorbency After Hydroxyapatite addition” value was 0.
As to `O=c1[nH]c(=O)n(COCCOCCOP(=O)(O)CP(=O)(O)O)cc1F` [II, Anhydride of 1-([2-{hydroxyethoxy}ethoxy]methylene)-5-fluorouracil and methylenediphosphonic acid], the “peaks absorbency Before Hydroxyapatite addition” value is 0,667 and the “peaks absorbency After Hydroxyapatite addition” value was 0,085.
As for `CC(O)(P(=O)(O)O)P(=O)(O)OP(=O)(O)OCC1OC(n2cc(F)c(=O)[nH]c2=O)C(O)C1O` (centres unmarked) [VI, Anhydride of 5-fluorouridine-5'-monophosphoric acid and 1-hydroxyethylidene-1,1-bisphosphonic acid], the “peaks absorbency Before Hydroxyapatite addition” value is on record as 0,567 and the “peaks absorbency After Hydroxyapatite addition” value is recorded as 0,172.
The matching figures for `Cc1ncc(COP(=O)(O)O)c(CNCCC(O)(P(=O)(O)O)P(=O)(O)O)c1O` [(i), 3 - (N-[5 '-phospho] -pyridoxylamino) -1-hydroxypropyliden-1,1-bisphosphonic acid]: 0,391 and 0.
As to `Cc1ncc(CO)c(CNCCC(O)(P(=O)(O)O)P(=O)(O)O)c1O` [(ii), 3-(N-pyridoxylamino) -1-hydroxypropyliden-1,1-bisphosphonic acid], the “peaks absorbency Before Hydroxyapatite addition” value is 0,758 and the “peaks absorbency After Hydroxyapatite addition” value came out at 0.
Regarding `O=c1[nH]c(=O)n(C2OC(COP(=O)(O)OP(=O)(O)CP(=O)(O)O)C(O)C2O)cc1F` (centres unmarked) [III, Anhydride of 5-fluorouridine-5'-monophosphoric acid and methylenediphosphonic acid], the “peaks absorbency Before Hydroxyapatite addition” value is recorded as 0,778 and the “peaks absorbency After Hydroxyapatite addition” value is recorded as 0,233.

The record behind these values is patent publication EP1383510B1, “BISPHOSPHONATE CONJUGATES AND METHODS OF MAKING AND USING THE SAME” (priority 2001, dated 2002).
